Results deposited as PubChem BioAssay AID504804 (Drosophila RNAi Screening Center, 2011).
Screen: 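Knock-downs shielding fly cells from apoptosis caused by DNA damage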 (primary screen). Cells: Drosophila Kc cells. Knock-down reagent: long dsRNA against Drosophila genes, 0.5 µg dsRNA per well. Time to read-out: 96 h (48 h knock-down, then 48 h drug). Treatment: doxorubicin 5 µg/ml for 48 h, added 48 h after dsRNA. Read-out: 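Luminescent ATP counts per replicate, not normalised, reflecting viable cells after 48 h dsRNA knock-down followed by 48 h of 5 µg/ml doxorubicin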. Direction: raw ATP luminescence: higher = more viable cells, protection from doxorubicin. Rule for the call: 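Active when both duplicate wells lie at least 2 SD above the plate mean and protection is confirmed by rescreening and independent dsRNAs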.
In all, the deposit lists about 19,000 reagents; shown is a random part of those with a known target gene and a result. Over the whole deposit, 47 (0.25%) are marked active. 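Signals are raw, not normalised; exact z-scores behind calls not deposited; actives needed confirmation, so some wells reaching 2 SD are inactive.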

target,amplicon,SD above plate mean,"raw ATP luminescence, replicate 1","raw ATP luminescence, replicate 2",outcome
CG16727,DRSC15139,,59060,90580,inactive
Lhr,DRSC06759,,52327,65277,inactive
CG17681,DRSC02632,,56287,64033,inactive
CG31705,DRSC01991,,76010,62763,inactive
form3,DRSC10195,,67093,72597,inactive
form3,DRSC10297,,49743,44340,inactive
form3,DRSC11024,,53477,70363,inactive
CG9368,DRSC11067,,23873,20667,inactive
mof,DRSC18795,,37340,43270,inactive
CG15160,DRSC02461,,27097,23850,inactive
CG9008,DRSC01889,,75870,66133,inactive
CG7567,DRSC16258,,53750,59730,inactive
Ugt35E2,DRSC16083,,46127,53007,inactive
Ir94c,DRSC13539,,2.05e5,2.45e5,inactive
CG7737,DRSC07033,,89337,69610,inactive
CG5334,DRSC19941,,4.06e5,3.76e5,inactive
CG3600 (retired record),DRSC18599,,48370,39380,inactive
pyd,DRSC12712,,79057,79647,inactive
pyd,DRSC14387,,55663,20773,inactive
pyd,DRSC14445,,63333,63263,inactive
pyd,DRSC14509,at least 2 SD above plate mean,86890,81950,active
pyd,DRSC16547,,54020,33987,inactive
pyd,DRSC16548,,46887,45790,inactive
pyd,DRSC17041,,58527,65203,inactive
CG31287,DRSC13138,,1.67e5,1.56e5,inactive
CG12128,DRSC06104,,49253,46357,inactive
Pp1-13C,DRSC20269,,1.55e5,1.84e5,inactive
m-cup,DRSC14430,,72310,77970,inactive
Lmx1a,DRSC09726,,60823,57177,inactive
Lmx1a,DRSC10275,,31003,30633,inactive
CG4115,DRSC15545,,59943,36950,inactive
CG6067,DRSC18399,,42080,52360,inactive

Next part (3 carried over from the part before).
target,amplicon,SD above plate mean,"raw ATP luminescence, replicate 1","raw ATP luminescence, replicate 2",outcome
Lmx1a,DRSC10275,,31003,30633,inactive
CG4115,DRSC15545,,59943,36950,inactive
CG6067,DRSC18399,,42080,52360,inactive
CG31806,DRSC02787,,73173,70487,inactive
eya,DRSC03510,,1.05e5,75083,inactive
Ir60d,DRSC04218,,49333,60657,inactive
CG11695,DRSC19416,,2.34e5,2.12e5,inactive
beag,DRSC15296,,46280,19507,inactive
CHES-1-like,DRSC18447,,56310,69060,inactive
Atg2,DRSC08273,,87333,57980,inactive
CG34193,DRSC05665,,1.69e5,1.14e5,inactive
CG33689,DRSC09424,,87313,86253,inactive
CG8861,DRSC12731,,80837,59690,inactive
CG8861,DRSC16449,,41680,49993,inactive
CG34398,DRSC01052,,3.11e5,3.15e5,inactive
CG34398,DRSC02510,,34753,44357,inactive
CG34398,DRSC02511,,40223,34113,inactive
CG34398,DRSC03228,,20143,33417,inactive
Prps,DRSC08994,,1.66e5,1.27e5,inactive
Prps,DRSC10707,,81873,53743,inactive
Prps,DRSC10708,,85787,56423,inactive
NT1,DRSC08530,,76777,72910,inactive
CG17570,DRSC01770,,59520,64990,inactive
CG17570,DRSC03754,,65610,64607,inactive
Droj2,DRSC16450,,40190,22313,inactive
CG17327,DRSC15225,,97420,69590,inactive
rst,DRSC17243,,2.02e5,1.97e5,inactive
rst,DRSC18828,,54910,58780,inactive
